Test results published in article PMC7356589, “Hybrid Gold(I) NHC-Artemether Complexes to Target Falciparum Malaria Parasites” (Molecules, 2020).

Test system: Vero cell line
Assay: Cytotoxicity on Vero cells (MTT)
Type: cell-based, monkey
Details: cytotoxic/antiplasmodial activity ratio
Experimental: The cells were cultured in MEM medium (Dutscher, Brumath, France) supplemented with 10% fetal bovine serum (Dutscher), 0.7 mM glutamine and 100 μg/mL gentamicin. The cells were seeded at 10^4 cells per well in a 96-well plates and incubated during 24 h. Then, cells were incubated for additional 48 h with the drugs. […] Subsequently, DMSO was added to the wells containing the cells and MTT to dissolve the formed crystals. The plates were then read to determine the absorbance at wavelength of 540 nm (µQuant, BioTek, Illkirch, France). Cell proliferation was calculated from at least three independent experiments using GraphPad Prism software 7 (GraphPad Software, San Diego, CA, USA). The cytotoxic/antiplasmodial activity ratio corresponds to the selectivity index.

Point of comparison: C[C@@H]1CCC2[C@@H](C)[C@@H](OCCCCCn3cc[n+](Cc4ccccc4)[c]3[Au-][c]3n(CCCCCO[C@H]4O[C@@H]5O[C@@]6(C)CCC7[C@H](C)CCC([C@H]4C)[C@]75OO6)cc[n+]3Cc3ccccc3)O[C@@H]3O[C@@]4(C)CCC1[C@@]23OO4.[Cl-] (some centres unmarked) [Aubis(5-Bn)], “Selectivity Index Vero Cells/P. falciparum” value 8. Against it:
- Cc1cc(C)c(-[n+]2ccn(CCCCO[C@H]3O[C@@H]4O[C@@]5(C)CCC6[C@H](C)CCC([C@H]3C)[C@]64OO5)[c]2[Au-][c]2n(CCCCO[C@H]3O[C@@H]4O[C@@]5(C)CCC6[C@H](C)CCC([C@H]3C)[C@]64OO5)cc[n+]2-c2c(C)cc(C)cc2C)c(C)c1.[Cl-] (some centres unmarked) [Aubis(4-Mes)] — higher, 18
- Cc1cc(C)c(-[n+]2ccn(CCCO[C@H]3O[C@@H]4O[C@@]5(C)CCC6[C@H](C)CCC([C@H]3C)[C@]64OO5)[c]2[Au-][c]2n(CCCO[C@H]3O[C@@H]4O[C@@]5(C)CCC6[C@H](C)CCC([C@H]3C)[C@]64OO5)cc[n+]2-c2c(C)cc(C)cc2C)c(C)c1.[Cl-] (some centres unmarked) [Aubis(3-Mes)] — the same, 8
- C[C@@H]1CCC2[C@@H](C)[C@@H](OCCCCCn3cc[n+](-c4ccc5ccccc5n4)[c]3[Au-][c]3n(CCCCCO[C@H]4O[C@@H]5O[C@@]6(C)CCC7[C@H](C)CCC([C@H]4C)[C@]75OO6)cc[n+]3-c3ccc4ccccc4n3)O[C@@H]3O[C@@]4(C)CCC1[C@@]23OO4.[Cl-] (some centres unmarked) [Aubis(5-Quin)] — higher, 53
- CC(C)[n+]1ccn(CCCO[C@H]2O[C@@H]3O[C@@]4(C)CCC5[C@H](C)CCC([C@H]2C)[C@]53OO4)[c]1[Au-][c]1n(CCCO[C@H]2O[C@@H]3O[C@@]4(C)CCC5[C@H](C)CCC([C@H]2C)[C@]53OO4)cc[n+]1C(C)C.[Cl-] (some centres unmarked) [Aubis(3-iPr)] — higher, 54
- C[C@@H]1CCC2[C@@H](C)[C@@H](OCCCn3cc[n+](C)[c]3[Au-][c]3n(CCCO[C@H]4O[C@@H]5O[C@@]6(C)CCC7[C@H](C)CCC([C@H]4C)[C@]75OO6)cc[n+]3C)O[C@@H]3O[C@@]4(C)CCC1[C@@]23OO4.O=[N+]([O-])[O-] (some centres unmarked) [Aubis(3-Me)] — higher, 143
- C[C@@H]1CCC2[C@@H](C)[C@@H](OCCCCn3cc[n+](C)[c]3[Au-][c]3n(CCCCO[C@H]4O[C@@H]5O[C@@]6(C)CCC7[C@H](C)CCC([C@H]4C)[C@]75OO6)cc[n+]3C)O[C@@H]3O[C@@]4(C)CCC1[C@@]23OO4.[Cl-] (some centres unmarked) [Aubis(4-Me)] — higher, 62
- C[C@@H]1CCC2[C@@H](C)[C@@H](OCCCn3cc[n+](-c4ccc5ccccc5n4)[c]3[Au-][c]3n(CCCO[C@H]4O[C@@H]5O[C@@]6(C)CCC7[C@H](C)CCC([C@H]4C)[C@]75OO6)cc[n+]3-c3ccc4ccccc4n3)O[C@@H]3O[C@@]4(C)CCC1[C@@]23OO4.[Cl-] (some centres unmarked) [Aubis(3-Quin)] — higher, 52
- C[C@@H]1CCC2[C@@H](C)[C@@H](OCCCn3cc[n+](Cc4ccccc4)[c]3[Au-][c]3n(CCCO[C@H]4O[C@@H]5O[C@@]6(C)CCC7[C@H](C)CCC([C@H]4C)[C@]75OO6)cc[n+]3Cc3ccccc3)O[C@@H]3O[C@@]4(C)CCC1[C@@]23OO4.[Cl-] (some centres unmarked) [Aubis(3-Bn)] — higher, 14
- C[C@@H]1CCC2[C@@H](C)[C@@H](OCCCCn3cc[n+](Cc4ccccc4)[c]3[Au-][c]3n(CCCCO[C@H]4O[C@@H]5O[C@@]6(C)CCC7[C@H](C)CCC([C@H]4C)[C@]75OO6)cc[n+]3Cc3ccccc3)O[C@@H]3O[C@@]4(C)CCC1[C@@]23OO4.[Cl-] (some centres unmarked) [Aubis(4-Bn)] — higher, 18
- C[C@@H]1CCC2[C@@H](C)[C@@H](OCCCCCn3cc[n+](C)[c]3[Au-][c]3n(CCCCCO[C@H]4O[C@@H]5O[C@@]6(C)CCC7[C@H](C)CCC([C@H]4C)[C@]75OO6)cc[n+]3C)O[C@@H]3O[C@@]4(C)CCC1[C@@]23OO4.[Cl-] (some centres unmarked) [Aubis(5-Me)] — higher, 111
